Data from patent US20140170137A1.
These are yes or no findings as the source states them, for the method shown. Some binding calls cover weakened binding; strength is not graded here.

Target: Staphylococcus Protein A (Staphylococcus) (UniProt P38507)
Test: Protein A chromatography

binding: binds
B1: caN-HCB-kLC (antibody)
heavy: EVQLVESGGDLVNPGGTLTLSCVVSGFSLTNNNVNWVRQALGRGLEWVGGVWAGGATDYNSALKSRLTITRDTSKSTVFLKMHSLQSEDTATYYCARDGGYSSSTLYAMDAWGQGTLVTVSSASTTAPSVFPLAPSCGSTSGSTVALACLVSGYFPEPVTVSWNSGSLTSGVHTFPSVLQSSGLYSLSSMVTVPSSRWPSETFTCNVAHPASKTKVDKPVPKRENGRVPRPPDCPKCPAPEMLGGPSVFIFPPKPKDTLLIARTPEVTCVVVDLDPEDPEVQISWFVDGKQMQTAKTQPREEQFNGTYRVVSVLPIGHQDWLKGKQFTCKVNNKALPSPIERTISKARGQAHQPSVYVLPPSREELSKNTVSLTCLIKDFYPPDIDVEWQSNGQQEPESKYRTTPPQLDEDGSYFLYSKLSVDKSRWQRGDTFICAVMHEALHNHYTQESLSHSPGK
light: DIQMTQSPASLSLSQEEKVTITCRASEDIYNALAWYQQKPGQAPKLLIYNTDTLHTGVPSRFSGSGSGTEYSLTINSLESEDVAVYFCQHYFHYPRTFGAGTKVELKRNDAQPAVYLFQPSPDQLHTGSASVVCLLNSFYPKDINVKWKVDGVIQDTGIQESVTEQDKDSTYSLSSTLTMSSTEYLSHELYSCEITHKSLPSTLIKSFQRSECQRVD
